Results taken from PubChem BioAssay AID540276 (National Center for Advancing Translational Sciences (NCATS), 2011).
Where “and” joins values, the source holds several entries; their conditions need not be identical. Equal values may be shown once. The whole screen tested about 300,000 compounds, of which about 5,400 (1.8%) were called active. This list was built around the results that the source calls inconclusive (neither active nor inactive); the mix of calls is not that of the screen. Calls come from the whole dose curve; tested in HEK293 cells. A potency beside an inconclusive call is a rough fit, not a confirmed value.
% is set by controls: 0 for no effect and ±100 for the full control effect; potency is the fitted concentration of half-maximal effect.

Assay: qHTS for inhibitors of binding or entry into cells for Marburg Virus
Conditions: Marburg virus pseudotyped entry inhibition, cell reporter; activity change, negative = inhibition: at 37.8 µM (top of the series) unless noted
With Nc1cc(Cl)nc(N/N=C/c2c(O)ccc3ccccc23)n1 the Potency was inconclusive: 18.4 µM [inhibitor, single point]. For O=C(O)c1cnn2c1NC(c1cccs1)CC2C(F)(F)F (configuration not stated), the Potency was “inactive”. For CC1CC(=O)c2cnc(Nc3ccccc3)nc2C1 (configuration not stated), the Potency was inconclusive: 5.17 µM [activator, partial curve, poor fit]. With CCN(CC)CCNC(=O)C1=C(OC)CC(N)=C(Cl)C1 the Potency was “inactive”. For Cc1cc(OCc2nc(-c3cccnc3)no2)c(C)cc1Br, the Potency was “inactive”. For COc1ccc(OC)c(-c2csc(NC(=O)Cc3ccccc3OC)n2)c1, the Potency was inconclusive: 35.5 µM [inhibitor, single point]. With CN1CCN(CC(=O)Nc2c(C#N)cnn2-c2ccccc2)CC1 the Potency was “inactive”. With O=C(CNC(=O)c1ccccc1F)OC(C(=O)Nc1cc(C(F)(F)F)ccc1Cl)c1ccccc1 (configuration not stated) the Potency was “inactive”. With COc1ccc(C(=O)C2CCCN(Cc3ccon3)C2)c(OC)c1 (configuration not stated) the Potency was “inactive”. With O=C(NCCCN1CCN(c2ccccc2)CC1)c1nnc(Cc2c(F)cccc2Cl)o1 the Potency was inconclusive: 8.91 µM [inhibitor, partial curve, poor fit]. With CCCNC(=O)c1ccc2c(c1)N=C(C)c1c(C)ccc(C)c1S2 the Potency was inconclusive: 1.26 µM [inhibitor, full curve, poor fit]. For Cc1cccc(N2CCN(C(=O)c3ccc4nc(-c5ccco5)c(-c5ccco5)nc4c3)CC2C)c1 (configuration not stated), the Potency was inconclusive: 29.1 µM [inhibitor, single point]. With Cc1c(C(=O)Nc2ccc3c(c2)OCCO3)sc2nc(-c3ccccc3)cn12 the Potency was inconclusive: 23.1 µM [inhibitor, single point]. In the case of O=C(CCN1C(=O)c2ccccc2S1(=O)=O)NCc1ccccc1, the Potency is reported as “inactive”. For Cc1cc(Br)c(NC(=O)COn2nnc3ccc(S(C)(=O)=O)cc32)c(Br)c1, the Potency was inconclusive: 15.8 µM [inhibitor, single point]. With O=C(Nc1ccc(Cl)cc1)Nc1cccnc1 the Potency was “inactive”. With CN(C)CCCN(Cc1ccccc1)C(=S)Nc1ccc(OC(F)F)cc1 the Potency was inconclusive: 35.5 µM [inhibitor, partial curve, poor fit]. For CSc1nnc(-c2ccncc2)n1/N=C/c1cn(-c2ccccc2)nc1-c1ccc(Cl)cc1, the Potency was inconclusive: 0.562 µM [inhibitor, full curve, poor fit]. With Cc1c(CC(=O)O)c(=O)oc2c(C)c(OCc3ccc(F)cc3Cl)ccc12 the Potency was inconclusive: 35.5 µM [activator, single point]. For Cc1ccc(CNC(=O)COC(=O)c2cccnc2Cl)cc1, the Potency was inconclusive: 35.5 µM [activator, single point]. In the case of O=C(COc1ccc(Cl)cc1)NCc1nnc(SCC(=O)NCc2ccc3c(c2)OCO3)o1, the Potency is reported as inconclusive: 0.112 µM [inhibitor, full curve, poor fit]. With CCn1c(=O)c(=O)[nH]c2cc(C(=O)NC3CC3)ccc21 the Potency was “inactive”. For Cc1nc2ccc(Br)cn2c1NC(C)(C)C, the Potency was “inactive”. With O=C(O)c1cc(N2N=C(C(F)(F)F)/C(=C/C=C/c3ccco3)C2=O)ccc1Cl the Potency was inconclusive: 35.5 µM [inhibitor, single point]. For O=C(N/N=C/c1cccs1)c1n[nH]c2c1CCCC2, the Potency was inconclusive: 7.94 µM [inhibitor, partial curve, poor fit]. For Cc1cc(C)c(C)c(OCCCOc2cccc3cccnc23)c1, the Potency was inconclusive: 0.184 µM [inhibitor, full curve, poor fit]. For O=c1[nH]c2cc3c(cc2cc1CN(Cc1ccc2c(c1)OCO2)Cc1nnnn1CC1CCCO1)OCO3 (configuration not stated), the Potency was inconclusive: 20.6 µM [inhibitor, partial curve, poor fit]. With O=C(NCCCC1CCCC1)C1CCC(=O)N(Cc2cccc(C(F)(F)F)c2)C1 (configuration not stated) the Potency was inconclusive: 35.5 µM [inhibitor, single point]. In the case of O=C(Nc1ccccc1F)c1nc(S(=O)(=O)Cc2ccccc2F)ncc1Cl, the Potency is reported as inconclusive: 11.2 µM [inhibitor, single point]. For Fc1ccc2[nH]c3c(N4CCN(Cc5ccc6c(c5)OCO6)CC4)ncnc3c2c1, the Potency was active: 8.91 µM. With CCCOP(=O)(OCCC)c1c([N+](=O)[O-])cc(C(F)(F)F)cc1[N+](=O)[O-] the Potency was inconclusive: 28.2 µM [inhibitor, single point]. For O=C(CCN1C(=O)NC2(CCCC2)C1=O)Nc1ccc(-c2nc3ccccc3s2)cc1, the Potency was inconclusive: 6.31 µM [inhibitor, partial curve, poor fit]. With O=C(COc1ccccc1)OCC(=O)N1CCCc2ccccc21 the Potency was “inactive”. In the case of COc1cc(/C=N/NC(=O)C[n+]2ccccc2)cc(OC)c1OC, the Potency is reported as inconclusive: 1.58 µM [inhibitor, partial curve, poor fit]. For COC(=O)c1c(NC(=O)CN2CCOCC2)sc2c1CCC(C)C2 (configuration not stated), the Potency was inconclusive: 6.31 µM [activator, single point]. In the case of CC(NC(=O)C(=O)NCCCn1ccnc1)c1ccccc1 (configuration not stated), the Potency is reported as inconclusive: 2.24 µM [inhibitor, partial curve, poor fit]. For CCOC(=O)c1[nH]c2ccccc2c1NC(=O)c1ccccc1OCC, the Potency was inconclusive: 11.2 µM [inhibitor, partial curve, poor fit]. For CCOc1ccc(S(=O)(=O)NCCC(=O)N2CCN(c3ccccc3O)CC2)cc1, the Potency was “inactive”. With CN(C)C(=O)C(OC(=O)c1ccc2c(c1)CCCC2)c1ccccc1 (configuration not stated) the Potency was inconclusive: 29.1 µM [inhibitor, single point]. For CCC(=O)NC(=S)Nc1ccc(NC(=O)c2ccco2)c(Cl)c1, the Potency was inconclusive: 3.16 µM [activator, single point]. For O=C(N/N=C/c1cn(-c2ccccc2)nc1-c1cc2ccccc2o1)c1ccccc1Br, the Potency was active: 10 µM. With COc1ccc(-n2c(SCC(=O)Nc3nc(C)cs3)nnc2-c2ccoc2C)cc1 the Potency was “inactive”. For O=C(Nc1ccc(N2CCCC2)c(S(=O)(=O)Nc2cccc(C(F)(F)F)c2)c1)c1cccs1, the Potency was active: 1.41 µM. For CCOC(=O)N1CCN(C(=O)COC(=O)c2ccc(S(=O)(=O)N(CC)CC)cc2)CC1, the activity change, negative = inhibition was inconclusive: 10.7% [activator]. For CCOC(=O)C(=CNc1ccc(C(O)(C(=O)OCC)C(F)(F)F)cc1C)C(=O)OCC (configuration not stated), the Potency was inconclusive: 35.5 µM [inhibitor, single point]. With O=C(NCC1CCN(C(=O)c2ccc([N+](=O)[O-])cc2)CC1)C(=O)Nc1ccccc1 the Potency was “inactive”. In the case of Nc1ccc(C(O)(C(F)(F)F)C(F)(F)F)cc1, the Potency is reported as inconclusive: 2.91 µM [activator, single point]. In the case of COc1ccc(S(=O)(=O)NCC2CCCO2)cc1C(=O)O (configuration not stated), the Potency is reported as inconclusive: 2.51 µM [activator, single point]. For COc1ccc(CCNC(=O)CO/N=C/c2cc3c(cc2Br)OCO3)cc1OC, the Potency was inconclusive: 35.5 µM [activator, single point]. For Cc1cccc(C(=O)Nc2cccc(C(=O)N/N=C/c3ccc4c(c3)OCO4)c2)c1, the Potency was inconclusive: 10 µM [inhibitor, partial curve, poor fit]. With CC1(C)C(C#N)=C(N)Oc2c1c(=O)oc1ccccc21 the Potency was “inactive”. With CC(C)(C)c1ccc(S(=O)(=O)N2CCC(c3nc4ccc(Cl)cc4[nH]3)CC2)cc1 the Potency was inconclusive: 29.1 µM [inhibitor, single point]. In the case of CCCn1c(=O)c2[nH]c(C3CCCC3)nc2n(CCC)c1=O, the Potency is reported as inconclusive: 29.1 µM [activator, single point]. With Cn1cnc2cc(NCc3ccccc3Cl)ccc21 the Potency was inconclusive: 35.5 µM [inhibitor, single point]. For O=C(Nc1ccccc1)c1ccc2nsnc2c1, the Potency was inconclusive: 25.9 µM [activator, single point]. With Oc1ccc2ccccc2c1CN1CCN(c2ccccc2)CC1 the Potency was “inactive”. With COc1ccc(C2C(C#N)=C(N)Oc3n[nH]c(C)c32)cc1Cn1nnc2ccccc21 (configuration not stated) the Potency was inconclusive: 4.11 µM [inhibitor, partial curve, poor fit]. With CCc1nc2ccccc2c(C(=O)OCC(=O)Nc2ccc(S(=O)(=O)N3CCOCC3)cc2)c1C the Potency was “inactive and inconclusive: 10 µM [inhibitor, single point]”. For CCOC(=O)n1c(=O)oc2ccccc21, the Potency was “inactive”. With CCCNC(=O)c1ccc2c(c1)ncn2-c1ccccc1OC the Potency was “inactive”. For N#C/C(=C\c1ccccc1OCc1ccc(C(=O)O)cc1)C(=O)Nc1ccc(O)cc1, the Potency was inconclusive: 5.62 µM [activator, single point]. With COc1cccc(/C(O)=C/C(=O)C(=O)Nc2ccc(S(=O)(=O)NC(C)=O)cc2)c1 the Potency was inconclusive: 0.794 µM [activator, full curve, poor fit]. For Cc1ccc(N2C(=O)C(CC(=O)Nc3ccc(F)cc3)N(CCC3=CCCCC3)C2=O)cc1 (configuration not stated), the Potency was inconclusive: 22.4 µM [inhibitor, single point]. In the case of COc1ccc(C(=O)NCC2CCCN2S(=O)(=O)c2cccs2)cc1OC (configuration not stated), the Potency is reported as inconclusive: 14.1 µM [activator, single point]. For CCOc1ccc(-c2cc(C(=O)NCC3CCCO3)c3ccccc3n2)cc1 (configuration not stated), the Potency was inconclusive: 35.5 µM [inhibitor, single point]. For C/C(CC(=O)NC1CCCCC1)=N\NC(=O)Cc1ccc(-c2ccccc2)cc1, the Potency was “inactive”. In the case of CCCCNC(=O)c1ccc(Cn2c(=S)[nH]c3c([nH]c4ccc(OC)cc43)c2=O)cc1, the Potency is reported as inconclusive: 35.5 µM [inhibitor, single point].
